# From US6342633B1, “O-benzyl oxime ether derivatives and their use as pesticides” (Bayer Aktiengesellschaft, priority 1993, dated 2002)
# Some entries share one result that the patent states for a list of compounds. Some compounds share one range, which may span the group rather than tell each member.
# What was measured:
# Erysiphe graminis = details: barley; residual-protective 0.02% spray, systemic 0.002% on soil; 10 days after infection
# Botrytis cinerea = experiment: Residual-protective activity against Botrytis cinerea on apple fruits; type: in vivo; details: artificially damaged apples; 0.02% of active ingredient; one week
# Podosphaera leucotricha = experiment: Residual-protective activity against Podosphaera leucotricha on apple shoots; details: apple cuttings; 0.06% of active ingredient; 12 days after infection; control plants 100% infested
Structure (SMILES),disease infestation (Erysiphe graminis),infestation (Botrytis cinerea),disease infestation (fungus attack) (Podosphaera leucotricha)
[H]/N=C(OC)/C(=N/OC)c1ccccc1CON=C(C)c1ccc(Cl)cc1 [Compound 1.13],0-5%,–,–
CCOC(=N\C)/C(=N/OC)c1ccccc1CON=C(C)c1ccc(Cl)cc1 [Compound 1.14],0-5%,–,–
C/N=C(OC)/C(=N/OC)c1ccccc1CON=C(SC)c1ccc2c(c1)OCO2 [Compound 1.86],0-5%,–,–
C/N=C(OC)/C(=N/OC)c1ccccc1CON=C(C)c1cccc(C(F)(F)F)c1 [Compound 1.112],0-5%,–,–
[H]/N=C(OC)/C(=N/OC)c1ccccc1CON=C(OC)c1cccc(C(F)(F)F)c1 [Compound 1.116],0-5%,–,–
C/N=C(SC)/C(=N/OC)c1ccccc1CON=C(SC)c1ccc(Cl)cc1 [Compound 2.13],0-5%,–,–
"C/N=C(SC)/C(=N/OC)c1ccccc1CO/N=C(\C)c1cccc(C(F)(F)F)c1 [Compound 2.57, N,S-Dimethyl-2-[2-(methyl(3-trifluoromethylphenyl)oximinomethyl)phenyl]2-methoximinothioacetimidate]",0-5%,0-5%,–
C/N=C(NC)/C(=N/OC)c1ccccc1CO/N=C(\C)c1ccc(Cl)cc1 [Compound 3.11],0-5%,0-5%,–
CO/N=C(N)/C(=N/OC)c1ccccc1CO/N=C(\C)c1ccc(Cl)cc1 [Compound 3.101],–,0-5%,–
CNC(=N\OC)/C(=N/OC)c1ccccc1CO/N=C(\C)c1ccc(Cl)cc1 [Compound 3.102],–,0-5%,–
CNC(=S)/C(=N/OC)c1ccccc1CON=C(C)c1ccc(Cl)cc1 [Compound 4.10],–,0-5%,–
"CNC(=S)/C(=N/OC)c1ccccc1CO/N=C(\C)c1cccc(C(F)(F)F)c1 [Compound 4.51, N-methyl-2-[2-(methyl(3-trifluoromethylphenyl)oximinomethyl)phenyl]-2-methoximinothioacetamide]",0-5%,0-5%,0-5%
"CO/N=C(/C(=N)OC)c1ccccc1CO/N=C(\C)c1cccc(C(F)(F)F)c1 [Example H-1, O-methyl-2-[2-(methyl(3-trifluoromethylphenyl)oximinomethyl)phenyl]2-methoximinoacetimidate]",0-5%,0-5%,0-5%
CCOC(=N)/C(=N/OC)c1ccccc1CO/N=C(\C)c1cccc(OC(F)(F)F)c1 [Example H-2],0-5%,0-5%,0-5%
"C/N=C(OC)/C(=N/OC)c1ccccc1CO/N=C(\C)c1ccc(Cl)cc1 [Example H-4, N,O-dimethyl-2-[2-(methyl(4-chlorophenyl)oximinomethyl)phenyl]2-methoximinoacetimidate]",0-5%,0-5%,0-5%
